Data taken from patent US20200338209A1, “ANTI-B7-H3 ANTIBODIES AND ANTIBODY DRUG CONJUGATES” (AbbVie Inc., priority 2016, published 2020).
Where a chain is given by its changes, count along the chain named. No constants are given. Whether binding was seen depends on the method and setting. Some results given as binding are weak or reduced against the parent protein; the word gives no strength. Sequences can lack the tags named with a protein.

T1: Human B7-H3-ECD (His tag) (human) (UniProt Q5ZPR3)
T1 sequence: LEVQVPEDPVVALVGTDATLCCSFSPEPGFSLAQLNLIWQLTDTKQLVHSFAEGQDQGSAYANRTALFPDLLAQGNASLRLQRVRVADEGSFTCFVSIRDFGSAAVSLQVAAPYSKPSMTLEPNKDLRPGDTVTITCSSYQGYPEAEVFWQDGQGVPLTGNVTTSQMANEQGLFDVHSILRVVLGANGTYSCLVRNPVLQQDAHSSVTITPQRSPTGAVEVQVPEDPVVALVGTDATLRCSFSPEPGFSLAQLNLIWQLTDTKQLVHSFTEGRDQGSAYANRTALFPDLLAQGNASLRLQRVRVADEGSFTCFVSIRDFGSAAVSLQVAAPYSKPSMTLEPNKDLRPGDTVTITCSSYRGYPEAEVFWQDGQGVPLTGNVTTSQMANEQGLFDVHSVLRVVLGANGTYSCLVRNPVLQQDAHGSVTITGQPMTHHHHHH

B1: huAb18v1 (antibody, V domains shown)
VH: EVQLVQSGAEVKKPGSSVKVSCKASGYSFTSYTIHWVRQAPGQGLEWMGYINPNSRNTDYNQKFKDRVTITADKSTSTAYMELSSLRSEDTAVYYCARYSGSTPYWYFDVWGQGTTVTVSS
VL: DIQLTQSPSFLSASVGDRVTITCRASSSVSYMNWYQQKPGKAPKLLIYATSNLASGVPSRFSGSGSGTEFTLTISSLQPEDFATYYCQQWSSNPLTFGQGTKLEIK
B2: huAb18v9 (antibody, V domains shown)
VH: B1 VH with M48I, V68T, I70L, K74R
VL: EIVLTQSPDFQSVTPKEKVTITCRASSSVSYMNWYQQKPDQSPKPWIYATSNLASGVPSRFSVSVSGTDHTLTINSLEAEDAATYYCQQWSSNPLTFGQGTKLEIK
B3: huAb18v10 (antibody, V domains shown)
VH: B1 VH with N61A, K65Q, D66G, I70L
VL: B1 VL with L45P, L46W, G63V, F70H
B4: huAb18v4 (antibody, V domains shown)
VH: B1 VH with N61A, K65Q, D66G, I70L
VL: B1 VL with A42S, L45P, L46W, G63V, G65V, F70H
B5: huAb18v5 (antibody, V domains shown)
VH: B1 VH
VL: B2 VL with P45L, W46L, Y48K, V63G, V65G, H70F
B6: huAb18v3 (antibody, V domains shown)
VH: B1 VH with M48I, V68T, I70L, K74R
VL: B1 VL with A42S, L45P, L46W, G63V, G65V, F70H
B7: huAb18v7 (antibody, V domains shown)
VH: B1 VH with N61A, K65Q, D66G, I70L
VL: B2 VL
B8: huAb18v8 (antibody, V domains shown)
VH: B1 VH with M48I, V68T, I70L, K74R
VL: B1 VL with L45P, L46W, G63V, F70H
B9: huAb18v6 (antibody, V domains shown)
VH: B1 VH with N61A, K65Q, D66G, I70L
VL: B2 VL with P45L, W46L, Y48K, V63G, V65G, H70F
B10: huAb18v2 (antibody, V domains shown)
VH: B1 VH with N61A, K65Q, D66G, I70L
VL: B1 VL
B11: Ab7 (antibody, mouse IgG1, V domains shown)
VH: EVQLVESGENLVKPGGSLKLSCAASGFSFRGYGMSWVRQTPDKRLEWVAAISTGGNYTYYPDSVQGRFTISRDNANNTLYLQMSSLKSEDTAMYYCARRGGNYAGFAYWGQGTLVTVSA
VL: DIQMTQSPASLSVSVGETVTITCRPSENIYSNLAWYQQKQGKSPQLLVYAATNLADGVPSRFSGSGSGTQYSLKINSLQSEDFGTYYCQHFWGTPFTFGSGTKLEIK

Target: T1, Human B7-H3-ECD (His tag) (human)
Assay: SPR (Biacore)

| binding | Binder |
| --- | --- |
| binds | B1 |
| binds | B2 |
| binds | B3 |
| binds | B4 |
| binds | B5 |
| binds | B6 |
| binds | B7 |
| binds | B8 |
| binds | B9 |
| binds | B10 |

Target: T1, Human B7-H3-ECD (His tag) (human)
Assay: SPR, mAb captured

| binding | Binder |
| --- | --- |
| binds | B11 |
